From paper PMC7262597
Results are given in words; binding and its absence hold for the method and conditions named. In cells and extracts the contact can be indirect. Some results given as binding are weak or reduced against the parent protein; the word gives no strength. Where a sequence is shown, tags or fusion partners need not be part of it.

Sequences of proteins named here, by UniProt entry; tags and fusion partners are left off.
UniProt Q9W2S2: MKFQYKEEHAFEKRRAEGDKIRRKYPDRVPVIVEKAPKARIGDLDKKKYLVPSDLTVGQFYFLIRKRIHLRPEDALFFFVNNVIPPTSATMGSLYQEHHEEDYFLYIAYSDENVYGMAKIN

Molecular target: T1, Sir2-myc (Drosophila) (UniProt Q9VK34)
T1 sequence: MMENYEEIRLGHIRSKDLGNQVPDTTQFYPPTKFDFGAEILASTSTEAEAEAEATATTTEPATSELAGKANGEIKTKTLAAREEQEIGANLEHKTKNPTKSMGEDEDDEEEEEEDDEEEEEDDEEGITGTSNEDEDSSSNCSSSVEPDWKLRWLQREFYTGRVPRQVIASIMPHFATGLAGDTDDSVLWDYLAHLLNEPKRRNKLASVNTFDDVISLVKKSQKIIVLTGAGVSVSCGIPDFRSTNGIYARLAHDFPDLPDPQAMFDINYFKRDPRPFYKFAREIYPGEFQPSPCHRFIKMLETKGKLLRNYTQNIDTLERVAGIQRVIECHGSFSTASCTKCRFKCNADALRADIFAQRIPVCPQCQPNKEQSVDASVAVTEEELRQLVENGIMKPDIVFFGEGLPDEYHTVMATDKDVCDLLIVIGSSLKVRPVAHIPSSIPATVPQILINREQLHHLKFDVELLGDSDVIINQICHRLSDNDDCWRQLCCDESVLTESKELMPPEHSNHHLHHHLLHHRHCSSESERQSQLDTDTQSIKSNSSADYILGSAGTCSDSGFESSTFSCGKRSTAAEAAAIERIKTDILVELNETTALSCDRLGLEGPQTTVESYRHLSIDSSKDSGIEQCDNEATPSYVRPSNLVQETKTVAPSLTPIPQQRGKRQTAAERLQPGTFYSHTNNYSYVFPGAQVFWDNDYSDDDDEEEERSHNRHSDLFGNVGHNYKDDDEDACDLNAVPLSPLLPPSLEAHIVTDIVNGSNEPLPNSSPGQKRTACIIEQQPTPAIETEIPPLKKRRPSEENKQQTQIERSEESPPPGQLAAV
Test: co-IP; Sir2-myc immunoprecipitated with anti-myc from lysates (1 mg protein, Nuclear lysis buffer) of fed and starved (4 h in 20% sucrose) larvae, 2 h at 4°C; GFP-Atg8a detected by blot

binding: binds
Substance: GFP-Atg8a (from UniProt Q9W2S2 1-121)
